Reference: PMC5508205
No constants are given. Whether binding was seen depends on the method and setting. In cells and extracts the contact can be indirect. Some binding calls cover weakened binding; strength is not graded here.

Protein sequences, listed by entry. Tags and fused reporters are not part of them. Residues count along the entry.
UniProt P46531, residues 1754-2555: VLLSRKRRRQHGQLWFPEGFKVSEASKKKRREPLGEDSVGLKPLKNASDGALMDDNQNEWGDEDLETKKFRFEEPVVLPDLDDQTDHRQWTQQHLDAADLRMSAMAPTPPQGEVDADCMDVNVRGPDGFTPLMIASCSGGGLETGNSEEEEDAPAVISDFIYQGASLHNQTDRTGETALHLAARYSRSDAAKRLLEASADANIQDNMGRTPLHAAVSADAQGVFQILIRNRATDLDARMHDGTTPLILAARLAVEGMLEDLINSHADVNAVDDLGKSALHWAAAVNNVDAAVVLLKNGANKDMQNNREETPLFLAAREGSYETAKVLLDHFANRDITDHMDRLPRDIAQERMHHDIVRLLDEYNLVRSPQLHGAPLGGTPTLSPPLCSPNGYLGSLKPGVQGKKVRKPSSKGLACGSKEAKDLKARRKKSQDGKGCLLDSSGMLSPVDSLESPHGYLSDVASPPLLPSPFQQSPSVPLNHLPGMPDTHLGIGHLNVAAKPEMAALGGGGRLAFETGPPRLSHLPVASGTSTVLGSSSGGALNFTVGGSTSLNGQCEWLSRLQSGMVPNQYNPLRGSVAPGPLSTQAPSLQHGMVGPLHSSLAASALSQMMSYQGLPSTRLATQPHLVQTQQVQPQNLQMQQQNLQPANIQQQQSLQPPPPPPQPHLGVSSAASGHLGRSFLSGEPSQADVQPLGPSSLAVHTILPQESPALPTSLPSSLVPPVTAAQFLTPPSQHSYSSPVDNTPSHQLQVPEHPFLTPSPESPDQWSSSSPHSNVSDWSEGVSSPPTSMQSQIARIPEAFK
UniProt P35222: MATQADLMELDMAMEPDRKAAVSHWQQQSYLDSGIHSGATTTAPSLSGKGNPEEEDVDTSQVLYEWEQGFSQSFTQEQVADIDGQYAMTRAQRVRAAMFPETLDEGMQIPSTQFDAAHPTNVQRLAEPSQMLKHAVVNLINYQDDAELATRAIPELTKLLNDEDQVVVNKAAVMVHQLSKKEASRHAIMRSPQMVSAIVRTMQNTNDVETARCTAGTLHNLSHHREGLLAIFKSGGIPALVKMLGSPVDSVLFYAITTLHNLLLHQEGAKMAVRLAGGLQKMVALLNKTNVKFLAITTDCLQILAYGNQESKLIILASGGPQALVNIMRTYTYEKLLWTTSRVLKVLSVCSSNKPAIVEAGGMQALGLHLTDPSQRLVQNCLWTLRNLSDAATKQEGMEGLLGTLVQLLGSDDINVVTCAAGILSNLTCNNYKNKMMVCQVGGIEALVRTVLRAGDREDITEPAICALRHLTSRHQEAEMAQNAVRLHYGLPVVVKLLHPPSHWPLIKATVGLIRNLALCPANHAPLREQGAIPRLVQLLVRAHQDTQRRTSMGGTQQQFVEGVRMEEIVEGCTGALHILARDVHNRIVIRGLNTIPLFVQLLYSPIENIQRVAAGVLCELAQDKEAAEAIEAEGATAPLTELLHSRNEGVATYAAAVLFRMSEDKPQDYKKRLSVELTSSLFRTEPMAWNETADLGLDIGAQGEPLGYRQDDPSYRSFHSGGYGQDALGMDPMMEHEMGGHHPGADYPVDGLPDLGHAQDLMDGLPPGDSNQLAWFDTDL

Legend:
[1] = target: T1, ERG (ETS-related gene) (human (endogenous in HUVEC)) (UniProt P11308); assay: co-IP; anti-ERG rabbit polyclonal antibody (H-95) on protein A sepharose beads with pre-cleared confluent HUVEC lysate (20 mM Tris-HCl pH 7.5, 150 mM NaCl, 0.5% Triton X-100), 4 °C; blots with anti-ERG, anti-β-catenin and anti-NICD; control rabbit IgG
T1 sequence: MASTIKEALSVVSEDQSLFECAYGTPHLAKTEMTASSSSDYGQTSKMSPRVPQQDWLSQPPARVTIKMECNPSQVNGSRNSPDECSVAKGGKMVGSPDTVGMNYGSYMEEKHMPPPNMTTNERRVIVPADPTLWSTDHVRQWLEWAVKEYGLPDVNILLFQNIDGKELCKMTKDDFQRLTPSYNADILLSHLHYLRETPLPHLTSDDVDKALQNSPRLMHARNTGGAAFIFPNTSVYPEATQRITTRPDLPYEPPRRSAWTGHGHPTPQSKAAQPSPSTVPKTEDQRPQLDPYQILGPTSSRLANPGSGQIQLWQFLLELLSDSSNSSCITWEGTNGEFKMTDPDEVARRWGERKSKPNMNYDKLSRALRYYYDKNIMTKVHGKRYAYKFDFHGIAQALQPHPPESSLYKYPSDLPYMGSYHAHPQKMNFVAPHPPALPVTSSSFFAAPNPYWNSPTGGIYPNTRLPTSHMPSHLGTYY

[2] = target: T1, ERG (ETS-related gene) (human (endogenous in HUVEC)); assay: proximity ligation; Duolink in situ PLA on fixed, permeabilised confluent HUVEC with rabbit anti-ERG and mouse anti-β-catenin; unstimulated, or Ang1 (250 ng/ml, 30 min), with or without pre-treatment with LY294002 (20 μM) or Akt inhibitor IV (8 μM)

| Substance | binding [1] | binding [2] |
| --- | --- | --- |
| Notch intracellular domain (NICD) (from UniProt P46531 1754-2555) (domain or fragment) | binds | – |
| β-catenin (from UniProt P35222 1-781) | binds | binds |
